PubChem BioAssay AID1259254 – NCATS – 2017

Aim: 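Finding genes that stop cells copying their DNA twice in one cycle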 (primary screen)
System: human HCT116 colorectal cancer cells
Reagents: single siRNA against human genes
Time to read-out: 3 days
Measured: 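Nuclei stained with Hoechst and imaged; cell-cycle phase assigned by DNA content; G2 share scaled per plate, non-targeting siRNA 0%, GMNN siRNA 100%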
Scale: G2 robust z-score: higher = more G2 cells, more excess DNA replication
Hit rule: 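Active siRNAs have a G2 robust z of 5 or more median absolute deviations over the median, which in these data means about 38% or higher of GMNN control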
This is an unselected part of about 59,000 reagents. About 1,550 of all reagents (2.6%) count as active. 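G2 share is only a proxy for re-replication; each gene was hit by three separate siRNAs, and active genes were retested.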 The numbers tell different reagents against one gene apart. Not all columns of the deposit are shown. Reagent sequences are not shown. The record does not give: the amount of reagent.

G2 robust z-score, by target gene and reagent
MAGEB6: #1 0.0657 inactive; #2 -0.286 inactive; #3 0.789 inactive
KDM5A: #1 0.559 inactive; #2 1.71 inactive; #3 -0.835 inactive
SORD2P: #1 -0.532 inactive; #2 3.8 inactive; #3 2.02 inactive
INTS5: #1 -0.457 inactive; #2 0.547 inactive; #3 0.285 inactive
BCL2A1: #1 -0.512 inactive; #2 -0.146 inactive; #3 2.01 inactive
VDAC3: #1 -1.46 inactive; #2 1.98 inactive; #3 0.503 inactive
MRPL43: #1 -0.784 inactive; #2 -0.756 inactive; #3 -1.06 inactive
HRG: #1 -0.72 inactive; #2 -0.482 inactive; #3 2.04 inactive
TNFAIP6: #1 0.415 inactive; #2 -0.672 inactive; #3 2.12 inactive
ZNF394: #1 -0.853 inactive; #2 2.71 inactive; #3 0.107 inactive

Already shown: entries from further up.
G2 robust z-score, by target gene and reagent
KDM5A: #1 0.559 inactive; #2 1.71 inactive; #3 -0.835 inactive
SORD2P: #1 -0.532 inactive; #2 3.8 inactive; #3 2.02 inactive
INTS5: #1 -0.457 inactive

The listing continues:
G2 robust z-score, by target gene and reagent
COPS6: #1 -0.24 inactive; #2 -0.869 inactive; #3 0.455 inactive
JAG2: #1 1.14 inactive; #2 0.726 inactive; #3 1.21 inactive
FOXO1: #1 -0.535 inactive; #2 -0.328 inactive; #3 5.16 active
TPTE2P1: #1 1.14 inactive; #2 0.346 inactive; #3 -0.00818 inactive
ITPRIP: #1 -0.857 inactive; #2 -0.504 inactive; #3 -0.0146 inactive
SGPP1: #1 -0.822 inactive; #2 -0.639 inactive; #3 0.271 inactive
